The values below come from US20250215100A1.

The labels stand for the following.
B1: PR006511 (antibody, human IgG1, kappa, V domains shown)
VH: QVQLVQSGAEVKKPGASVKVSCKASGYTFAGYYMYWVRQAPGQGLEWMGWINPDSGAPTYAQKFQGRVTMTRDTSISTAYMELSRLRSDDTAVYYCAREKIYYGSGNYYPSFDYWGQGTLVTVSS
VL: DIQLTQSPSFLSASVGDRVTITCRASQGISSYLAWYQQKPGKAPKLLIYAASTLQSGVPSRFSGSGSGTEFTLTISSLQPEDFATYYCQQLNNYPWTFGQGTKVEIKR
B2: PR006516 (antibody, human IgG1, kappa, V domains shown)
VH: B1 VH
VL: B1 VL with N93H
B3: PR006515 (antibody, human IgG1, kappa, V domains shown)
VH: B1 VH
VL: B1 VL with N93M
B4: PR006512 (antibody, human IgG1, kappa, V domains shown)
VH: B1 VH
VL: B1 VL with N93T
B5: PR006514 (antibody, human IgG1, kappa, V domains shown)
VH: B1 VH
VL: B1 VL with N93V
B6: PR006513 (antibody, human IgG1, kappa, V domains shown)
VH: B1 VH
VL: B1 VL with N93Q

Substitutions are numbered along the chain they refer to. These are yes or no findings as the source states them, for the method shown. Some results given as binding are weak or reduced against the parent protein; the word gives no strength.

This experiment has as its target cynomolgus monkey CD40 on cells (cynomolgus monkey) (UniProt G7PG38). As to the kind of experiment: FACS, CHO-K1/cyCD40 cells. (In general: A flow cytometer gives signals particle by particle.)
Turning to B1, the binding entry is given as “binds”.
The value for B2 was “binds”; that for B3 was “binds”; that for B4 was “binds”.
For B5, the binding entry was “binds”.
As to B6, the binding entry is reported as “binds”.
